Values from PubChem BioAssay AID1259254 (NCATS, 2017).
Test: 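Finding genes that stop cells copying their DNA twice in one cycle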 (primary screen). System: human HCT116 colorectal cancer cells. Reagents: single siRNA against human genes. Duration: 3 days. Read-out: 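Nuclei stained with Hoechst and imaged; cell-cycle phase assigned by DNA content; G2 share scaled per plate, non-targeting siRNA 0%, GMNN siRNA 100%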. Scale: G2 robust z-score and G2 cells, % of GMNN control: higher = more G2 cells, more excess DNA replication; raw share of cells in G2: higher = larger share of cells with G2 DNA content. Hit rule: 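An siRNA counts as active if its G2 robust z-score lies at least 5 MADs above the screen median; here such calls match roughly 38% of GMNN control or more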.
Here is one part, drawn at random, of about 59,000 reagents. Over the whole deposit, about 1,550 (2.6%) got an active call. 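G2 share is only a proxy for re-replication; each gene was hit by three separate siRNAs, and active genes were retested.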 Raw values vary from plate to plate and are shown uncorrected. Entries without a mark were called inactive. The numbers tell different reagents against one gene apart. The record does not give: the amount of reagent.

no.	gene	reagent	G2 robust z-score	G2 cells, % of GMNN control	raw share of cells in G2 (%)
1	TMEM100 (GeneID 55273)	1	-0.658	-1.66	3.89
2	TMEM100 (GeneID 55273)	2	0.468	6.26	6.73
3	TMEM100 (GeneID 55273)	3	0.737	8.15	5.74
4	ISY1 (GeneID 57461)	1	-0.0399	2.69	5.41
5	ISY1 (GeneID 57461)	2	0.0314	3.19	5.98
6	ISY1 (GeneID 57461)	3	0.785	8.49	5.72
7	TCL1B (GeneID 9623)	1	-0.43	-0.0565	5.3
8	TCL1B (GeneID 9623)	2	0.642	7.48	7.07
9	TCL1B (GeneID 9623)	3	-0.777	-2.5	2.49
10	NPIPB3 (GeneID 23117)	1	0.675	7.72	8.01
11	NPIPB3 (GeneID 23117)	2	0.253	4.75	6.09
12	NPIPB3 (GeneID 23117)	3	-0.265	1.1	3.59
13	B3GALT5-AS1 (GeneID 114041)	1	-1.12	-4.88	0.393
14	B3GALT5-AS1 (GeneID 114041)	2	0.369	5.56	6.32
15	B3GALT5-AS1 (GeneID 114041)	3	-0.753	-2.33	2.64
16	C17orf78 (GeneID 284099)	1	1.13	10.9	7.63
17	C17orf78 (GeneID 284099)	2	0.566	6.95	5.73
18	C17orf78 (GeneID 284099)	3	-0.6	-1.25	2.89
19	GLYATL1 (GeneID 92292)	1	1.77	15.4	11.6
20	GLYATL1 (GeneID 92292)	2	-1.14	-5.09	3.31
21	GLYATL1 (GeneID 92292)	3	-0.291	0.918	4.83
22	PSMD2 (GeneID 5708)	1	1.24	11.7	8.04
23	PSMD2 (GeneID 5708)	2	1.86	16.1	10.8
24	PSMD2 (GeneID 5708)	3	1.42	13	9.43
25	OR8G5 (GeneID 219865)	1	-0.933	-3.59	2.27
26	OR8G5 (GeneID 219865)	2	0.614	7.29	5.63
27	OR8G5 (GeneID 219865)	3	-0.297	0.879	3.47
28	ZPR1 (GeneID 8882)	1	1.7	14.9	11.8
29	ZPR1 (GeneID 8882)	2	-0.739	-2.23	3.01
30	ZPR1 (GeneID 8882)	3	0.557	6.89	5.78

Not a retest: entries from further up.
no.	gene	reagent	G2 robust z-score	G2 cells, % of GMNN control	raw share of cells in G2 (%)
5	ISY1 (GeneID 57461)	2	0.0314	3.19	5.98
6	ISY1 (GeneID 57461)	3	0.785	8.49	5.72
7	TCL1B (GeneID 9623)	1	-0.43	-0.0565	5.3
8	TCL1B (GeneID 9623)	2	0.642	7.48	7.07
